Source: PMC3571920
Results are given in words; binding and its absence hold for the method and conditions named. In cells and extracts the contact can be indirect. A result given as binding can be weak or reduced; the word gives no strength.

Target: HIV-1 integrase tagged at the C-terminus with the HA epitope (IN-HA) (HIV-1 (Lai molecular clone))
Experiment: co-IP; 3 mg whole cell extract of infected SupT1 cells (2 h and 6 h p.i.) on anti-HA affinity matrix (clone 3F10), 3 h at 4°C; washed with PBS-0.1% tween 20; Western blot of LEDGF/p75, TNPO3 and HA

B1: TNPO3 (protein, UniProt Q9Y5L0 1-923)
chain: MEGAKPTLQLVYQAVQALYHDPDPSGKERASFWLGELQRSVHAWEISDQLLQIRQDVESCYFAAQTMKMKIQTSFYELPTDSHASLRDSLLTHIQNLKDLSPVIVTQLALAIADLALQMPSWKGCVQTLVEKYSNDVTSLPFLLEILTVLPEEVHSRSLRIGANRRTEIIEDLAFYSSTVVSLLMTCVEKAGTDEKMLMKVFRCLGSWFNLGVLDSNFMANNKLLALLFEVLQQDKTSSNLHEAASDCVCSALYAIENVETNLPLAMQLFQGVLTLETAYHMAVAREDLDKVLNYCRIFTELCETFLEKIVCTPGQGLGDLRTLELLLICAGHPQYEVVEISFNFWYRLGEHLYKTNDEVIHGIFKAYIQRLLHALARHCQLEPDHEGVPEETDDFGEFRMRVSDLVKDLIFLIGSMECFAQLYSTLKEGNPPWEVTEAVLFIMAAIAKSVDPENNPTLVEVLEGVVRLPETVHTAVRYTSIELVGEMSEVVDRNPQFLDPVLGYLMKGLCEKPLASAAAKAIHNICSVCRDHMAQHFNGLLEIARSLDSFLLSPEAAVGLLKGTALVLARLPLDKITECLSELCSVQVMALKKLLSQEPSNGISSDPTVFLDRLAVIFRHTNPIVENGQTHPCQKVIQEIWPVLSETLNKHRADNRIVERCCRCLRFAVRCVGKGSAALLQPLVTQMVNVYHVHQHSCFLYLGSILVDEYGMEEGCRQGLLDMLQALCIPTFQLLEQQNGLQNHPDTVDDLFRLATRFIQRSPVTLLRSQVVIPILQWAIASTTLDHRDANCSVMRFLRDLIHTGVANDHEEDFELRKELIGQVMNQLGQQLVSQLLHTCCFCLPPYTLPDVAEVLWEIMQVDRPTFCRWLENSLKGLPKETTVGAVTVTHKQLTDFHKQVTSAEECKQVCWALRDFTRLFR
- binding: binds
